This is one part of the list.

Sequences of proteins named here, by UniProt entry; tags and fusion partners are left off. A change or cut given only in a name is not applied to a line headed by its entry.
UniProt O75746: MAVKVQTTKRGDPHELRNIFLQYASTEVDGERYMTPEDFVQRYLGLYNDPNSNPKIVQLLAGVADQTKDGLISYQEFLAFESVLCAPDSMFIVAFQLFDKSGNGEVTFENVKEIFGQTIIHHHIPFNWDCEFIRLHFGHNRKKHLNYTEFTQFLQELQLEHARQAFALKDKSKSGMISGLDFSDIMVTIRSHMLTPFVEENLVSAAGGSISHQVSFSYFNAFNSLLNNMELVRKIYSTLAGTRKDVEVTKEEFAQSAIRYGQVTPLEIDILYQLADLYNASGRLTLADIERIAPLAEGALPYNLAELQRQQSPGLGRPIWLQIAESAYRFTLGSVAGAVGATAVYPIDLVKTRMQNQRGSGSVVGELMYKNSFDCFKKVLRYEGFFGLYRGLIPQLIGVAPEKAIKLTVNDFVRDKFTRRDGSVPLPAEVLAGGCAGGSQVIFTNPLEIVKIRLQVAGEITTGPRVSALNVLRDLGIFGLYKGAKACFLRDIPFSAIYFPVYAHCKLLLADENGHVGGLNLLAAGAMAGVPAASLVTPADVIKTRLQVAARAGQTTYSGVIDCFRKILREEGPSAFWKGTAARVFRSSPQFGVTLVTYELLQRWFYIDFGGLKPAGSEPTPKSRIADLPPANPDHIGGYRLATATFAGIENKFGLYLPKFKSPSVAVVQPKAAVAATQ
UniProt Q92504: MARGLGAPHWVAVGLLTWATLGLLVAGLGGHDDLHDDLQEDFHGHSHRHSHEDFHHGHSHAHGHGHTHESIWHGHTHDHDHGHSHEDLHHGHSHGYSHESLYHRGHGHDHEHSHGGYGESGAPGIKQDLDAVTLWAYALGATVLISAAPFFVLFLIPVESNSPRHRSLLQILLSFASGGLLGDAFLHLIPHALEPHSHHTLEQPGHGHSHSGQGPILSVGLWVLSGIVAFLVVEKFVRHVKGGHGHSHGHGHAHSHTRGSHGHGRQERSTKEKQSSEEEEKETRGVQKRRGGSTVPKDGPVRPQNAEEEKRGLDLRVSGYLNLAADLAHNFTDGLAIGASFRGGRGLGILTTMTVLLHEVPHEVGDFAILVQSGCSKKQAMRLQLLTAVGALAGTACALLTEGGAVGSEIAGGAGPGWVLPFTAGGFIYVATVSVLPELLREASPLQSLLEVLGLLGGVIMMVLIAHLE
UniProt Q8NBI5: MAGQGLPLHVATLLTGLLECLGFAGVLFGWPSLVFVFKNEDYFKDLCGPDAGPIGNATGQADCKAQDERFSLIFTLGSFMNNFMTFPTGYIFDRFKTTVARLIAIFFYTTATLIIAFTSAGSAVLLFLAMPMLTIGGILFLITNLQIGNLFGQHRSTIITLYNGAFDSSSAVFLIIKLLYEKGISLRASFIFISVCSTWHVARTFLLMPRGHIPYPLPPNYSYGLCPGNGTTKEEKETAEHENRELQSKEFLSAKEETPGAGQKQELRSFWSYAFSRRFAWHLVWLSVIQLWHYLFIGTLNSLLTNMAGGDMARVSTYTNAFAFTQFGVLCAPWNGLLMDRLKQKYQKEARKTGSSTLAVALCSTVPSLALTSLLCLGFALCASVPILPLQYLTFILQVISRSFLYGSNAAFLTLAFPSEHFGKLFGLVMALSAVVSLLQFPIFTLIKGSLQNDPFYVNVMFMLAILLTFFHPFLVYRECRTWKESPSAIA
UniProt O43826: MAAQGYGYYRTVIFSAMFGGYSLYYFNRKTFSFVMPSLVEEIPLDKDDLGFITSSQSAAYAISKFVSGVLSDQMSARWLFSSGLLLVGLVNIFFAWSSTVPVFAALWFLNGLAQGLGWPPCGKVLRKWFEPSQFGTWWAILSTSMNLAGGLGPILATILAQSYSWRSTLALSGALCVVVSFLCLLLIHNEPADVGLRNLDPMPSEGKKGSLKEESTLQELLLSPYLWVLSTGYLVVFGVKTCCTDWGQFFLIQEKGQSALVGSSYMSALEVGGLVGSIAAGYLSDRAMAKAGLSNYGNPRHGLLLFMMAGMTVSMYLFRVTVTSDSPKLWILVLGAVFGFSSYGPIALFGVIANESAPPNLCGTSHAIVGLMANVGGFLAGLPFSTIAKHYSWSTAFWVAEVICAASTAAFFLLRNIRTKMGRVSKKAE
UniProt Q9BQT8: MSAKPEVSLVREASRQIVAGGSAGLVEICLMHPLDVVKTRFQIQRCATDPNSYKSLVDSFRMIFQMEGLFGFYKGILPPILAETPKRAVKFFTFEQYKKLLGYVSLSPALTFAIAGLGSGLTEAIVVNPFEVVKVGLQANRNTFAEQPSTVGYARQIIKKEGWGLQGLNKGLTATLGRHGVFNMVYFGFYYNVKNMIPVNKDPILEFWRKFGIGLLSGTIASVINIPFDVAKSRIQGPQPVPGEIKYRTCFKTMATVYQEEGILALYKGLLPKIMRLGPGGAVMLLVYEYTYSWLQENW
UniProt Q9UBX3: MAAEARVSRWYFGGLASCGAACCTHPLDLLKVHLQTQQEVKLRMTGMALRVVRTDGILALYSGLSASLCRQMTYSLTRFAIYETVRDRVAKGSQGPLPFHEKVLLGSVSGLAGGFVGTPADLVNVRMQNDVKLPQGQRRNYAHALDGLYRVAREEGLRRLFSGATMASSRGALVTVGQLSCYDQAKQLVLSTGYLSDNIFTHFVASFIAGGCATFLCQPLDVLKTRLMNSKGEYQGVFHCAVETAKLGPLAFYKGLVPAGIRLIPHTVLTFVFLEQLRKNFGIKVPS
UniProt P11166: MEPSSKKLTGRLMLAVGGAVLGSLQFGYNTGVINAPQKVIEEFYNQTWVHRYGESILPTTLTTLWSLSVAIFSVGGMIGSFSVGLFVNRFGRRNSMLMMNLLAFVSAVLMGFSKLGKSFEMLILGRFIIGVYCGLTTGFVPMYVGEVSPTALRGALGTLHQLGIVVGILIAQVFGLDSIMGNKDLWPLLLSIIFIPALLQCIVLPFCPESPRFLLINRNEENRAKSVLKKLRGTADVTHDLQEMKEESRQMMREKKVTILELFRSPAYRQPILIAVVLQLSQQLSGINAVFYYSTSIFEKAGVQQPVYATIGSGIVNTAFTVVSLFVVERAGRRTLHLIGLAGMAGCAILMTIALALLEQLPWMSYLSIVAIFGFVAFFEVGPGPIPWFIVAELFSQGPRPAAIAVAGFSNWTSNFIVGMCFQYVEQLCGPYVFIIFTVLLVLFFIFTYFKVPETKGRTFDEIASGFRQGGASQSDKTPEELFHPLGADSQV
UniProt Q9ULF5: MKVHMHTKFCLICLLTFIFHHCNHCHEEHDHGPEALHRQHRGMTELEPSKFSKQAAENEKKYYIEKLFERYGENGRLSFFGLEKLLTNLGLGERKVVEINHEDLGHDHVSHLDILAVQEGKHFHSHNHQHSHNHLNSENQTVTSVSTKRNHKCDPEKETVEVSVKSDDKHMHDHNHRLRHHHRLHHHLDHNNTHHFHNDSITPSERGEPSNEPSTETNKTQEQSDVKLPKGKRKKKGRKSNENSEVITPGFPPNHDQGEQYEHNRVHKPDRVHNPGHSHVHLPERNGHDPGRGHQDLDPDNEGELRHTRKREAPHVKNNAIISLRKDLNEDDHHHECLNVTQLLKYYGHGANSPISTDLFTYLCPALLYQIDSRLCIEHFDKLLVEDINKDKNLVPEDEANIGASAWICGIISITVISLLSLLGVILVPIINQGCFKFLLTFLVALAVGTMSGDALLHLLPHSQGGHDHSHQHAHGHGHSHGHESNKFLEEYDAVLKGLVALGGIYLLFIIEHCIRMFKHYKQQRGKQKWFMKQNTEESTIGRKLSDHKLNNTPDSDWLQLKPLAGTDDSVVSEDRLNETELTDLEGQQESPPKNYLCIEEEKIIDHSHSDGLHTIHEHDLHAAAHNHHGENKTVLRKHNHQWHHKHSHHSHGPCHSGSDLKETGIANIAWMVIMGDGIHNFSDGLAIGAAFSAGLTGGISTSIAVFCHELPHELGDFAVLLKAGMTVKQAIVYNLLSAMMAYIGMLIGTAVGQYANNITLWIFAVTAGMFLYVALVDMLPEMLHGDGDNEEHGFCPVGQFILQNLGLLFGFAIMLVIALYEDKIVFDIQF
UniProt O43808: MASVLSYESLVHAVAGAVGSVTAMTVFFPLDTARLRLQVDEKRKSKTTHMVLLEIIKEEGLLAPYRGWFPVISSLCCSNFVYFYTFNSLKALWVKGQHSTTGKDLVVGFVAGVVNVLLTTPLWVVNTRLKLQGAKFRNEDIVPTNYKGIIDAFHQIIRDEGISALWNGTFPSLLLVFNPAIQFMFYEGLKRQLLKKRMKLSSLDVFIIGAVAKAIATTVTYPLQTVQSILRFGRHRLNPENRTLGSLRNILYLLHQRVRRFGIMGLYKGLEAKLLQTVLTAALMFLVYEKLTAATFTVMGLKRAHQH
UniProt Q15758: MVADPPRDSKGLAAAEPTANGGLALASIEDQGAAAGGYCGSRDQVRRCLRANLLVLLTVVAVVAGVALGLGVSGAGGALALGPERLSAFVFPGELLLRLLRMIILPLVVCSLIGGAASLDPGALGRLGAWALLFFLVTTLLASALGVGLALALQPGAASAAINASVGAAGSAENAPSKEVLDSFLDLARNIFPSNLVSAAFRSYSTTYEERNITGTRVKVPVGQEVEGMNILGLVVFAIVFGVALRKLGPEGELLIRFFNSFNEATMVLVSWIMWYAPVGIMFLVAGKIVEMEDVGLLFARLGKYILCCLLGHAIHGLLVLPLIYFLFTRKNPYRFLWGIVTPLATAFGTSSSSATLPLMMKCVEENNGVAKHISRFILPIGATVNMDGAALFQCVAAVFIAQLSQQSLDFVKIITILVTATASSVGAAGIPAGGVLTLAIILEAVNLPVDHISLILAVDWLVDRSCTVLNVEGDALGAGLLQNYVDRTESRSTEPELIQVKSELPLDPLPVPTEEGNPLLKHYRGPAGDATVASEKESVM
UniProt P53007, whole entry, looked up: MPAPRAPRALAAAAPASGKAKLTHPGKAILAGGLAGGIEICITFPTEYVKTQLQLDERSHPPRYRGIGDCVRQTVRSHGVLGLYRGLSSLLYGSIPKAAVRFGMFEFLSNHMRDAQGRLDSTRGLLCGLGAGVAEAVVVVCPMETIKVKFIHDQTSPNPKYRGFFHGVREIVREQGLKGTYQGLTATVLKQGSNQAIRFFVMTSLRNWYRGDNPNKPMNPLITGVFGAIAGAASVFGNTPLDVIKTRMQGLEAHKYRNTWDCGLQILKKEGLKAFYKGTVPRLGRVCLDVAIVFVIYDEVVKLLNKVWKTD
UniProt Q8WUM9: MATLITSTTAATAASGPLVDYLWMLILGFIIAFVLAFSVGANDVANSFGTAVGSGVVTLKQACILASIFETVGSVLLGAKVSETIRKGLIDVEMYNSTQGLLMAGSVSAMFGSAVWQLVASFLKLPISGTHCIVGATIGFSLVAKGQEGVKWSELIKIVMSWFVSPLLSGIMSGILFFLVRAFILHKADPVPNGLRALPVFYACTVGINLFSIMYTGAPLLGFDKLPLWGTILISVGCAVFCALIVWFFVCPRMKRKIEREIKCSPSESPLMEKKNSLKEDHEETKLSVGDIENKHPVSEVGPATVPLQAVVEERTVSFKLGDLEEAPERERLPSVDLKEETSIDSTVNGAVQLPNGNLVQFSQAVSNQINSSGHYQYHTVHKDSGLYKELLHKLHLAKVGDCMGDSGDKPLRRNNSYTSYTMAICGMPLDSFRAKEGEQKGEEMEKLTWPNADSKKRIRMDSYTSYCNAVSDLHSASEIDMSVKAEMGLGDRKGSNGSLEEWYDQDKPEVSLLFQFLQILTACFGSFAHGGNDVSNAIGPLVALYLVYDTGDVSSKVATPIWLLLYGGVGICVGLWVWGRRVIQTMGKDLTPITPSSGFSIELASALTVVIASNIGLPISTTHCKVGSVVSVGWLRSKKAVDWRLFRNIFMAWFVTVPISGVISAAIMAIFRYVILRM
UniProt P53794: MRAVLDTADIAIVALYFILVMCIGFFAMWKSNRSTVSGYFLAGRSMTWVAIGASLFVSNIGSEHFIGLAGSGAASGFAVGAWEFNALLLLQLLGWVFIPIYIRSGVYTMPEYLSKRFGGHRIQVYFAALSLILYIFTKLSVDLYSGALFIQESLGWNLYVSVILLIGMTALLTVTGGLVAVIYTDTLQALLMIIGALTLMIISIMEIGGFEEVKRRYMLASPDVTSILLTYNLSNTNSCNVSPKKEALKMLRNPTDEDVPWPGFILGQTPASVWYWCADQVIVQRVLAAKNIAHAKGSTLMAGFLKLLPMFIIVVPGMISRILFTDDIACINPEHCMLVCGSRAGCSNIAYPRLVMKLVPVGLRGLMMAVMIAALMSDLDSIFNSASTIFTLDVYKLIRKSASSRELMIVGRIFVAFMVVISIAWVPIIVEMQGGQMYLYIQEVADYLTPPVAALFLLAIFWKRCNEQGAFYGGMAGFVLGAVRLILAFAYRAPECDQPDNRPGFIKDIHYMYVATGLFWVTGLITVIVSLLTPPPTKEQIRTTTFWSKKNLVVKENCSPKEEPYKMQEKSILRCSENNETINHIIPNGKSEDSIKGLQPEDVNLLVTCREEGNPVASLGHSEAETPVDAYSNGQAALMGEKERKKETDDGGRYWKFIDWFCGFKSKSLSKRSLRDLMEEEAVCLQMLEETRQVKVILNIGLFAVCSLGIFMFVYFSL

Compound in this assay: CC1=C(C2=C(C=C1)C(=O)C3=CC=CC=C3N2CCCN)C
The experiment in a line: log2 fold change, soluble protein after heating vs DMSO (PISA); higher = thermal stabilisation; K562 cells, 10 uM, 30 min; active = over 0.2 and 3.5 SD of the protein, either way, in both replicates (recomputed). In outline: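 K562 cells at 2×10^6 cells/mL were given 10 μM compound for 30 min. Aliquots then went through 3 min of heating across 48°C-58°C, were pooled, and were extracted in PBS with 0.5% NP-40 at 4°C, and the supernatant after 21,000xg for 90 min was quantified by TMTpro 16plex LC-MS/MS with channel sums equalised. Thermal stability relative to control samples, from duplicates, is given as log2 fold change.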
For SLC25A33 (UniProt Q9BSK2), the log2 fold change was inactive: -0.064.

As for SLC4A7 isoform 7 (UniProt Q9Y6M7), the log2 fold change is inactive: 0.175.

Turning to SLC25A12 (UniProt O75746), the log2 fold change was inactive: -0.015.

Regarding SLC12A6 isoform 2 (UniProt Q9UHW9), the log2 fold change was inactive: 0.039.

Consider SLC39A7 (UniProt Q92504), for which the log2 fold change was inactive: -0.01.

On to SLC43A3 isoform 2 (UniProt Q8NBI5), for which the log2 fold change is inactive: 0.015.

For the target SLC37A4 isoform 2 (UniProt O43826), the log2 fold change is inactive: -0.009.

Consider SLC25A11 (UniProt Q02978), for which the log2 fold change is inactive: -0.016.

In the case of SLC25A21 (UniProt Q9BQT8), the log2 fold change was inactive: -0.032.

In the case of SLC25A10 isoform 2 (UniProt Q9UBX3), the log2 fold change was inactive: 0.008.

Turning to SLC25A19 (UniProt Q9HC21), the log2 fold change is inactive: 0.02.

SLC2A1 (UniProt P11166): the log2 fold change was inactive: 0.007.

Turning to SLC29A1 isoform 2 (UniProt Q99808), the log2 fold change was inactive: 0.027.

For SLC30A9 (UniProt Q6PML9), the log2 fold change is inactive: 0.096.

For SLC25A20 (UniProt O43772), the log2 fold change was inactive: 0.002.

Turning to SLC39A10 (UniProt Q9ULF5), the log2 fold change was inactive: 0.027.

As to SLC20A2 (UniProt Q08357), the log2 fold change was inactive: 0.023.

As for SLC1A4 (UniProt P43007), the log2 fold change was inactive: 0.021.

In the case of SLC30A5 (UniProt Q8TAD4), the log2 fold change was inactive: 0.064.

Take SLC25A3 isoform 2 (UniProt Q00325): the log2 fold change is inactive: 0.008.

Regarding SLC7A5 (UniProt Q01650), the log2 fold change is inactive: 0.014.

For SLC35B3 (UniProt Q9H1N7), the log2 fold change is inactive: -0.028.

SLC7A1 (UniProt P30825): the log2 fold change was inactive: 0.

On to SLC25A40 (UniProt Q8TBP6), for which the log2 fold change is inactive: 0.056.

For SLC2A3 (UniProt P11169), the log2 fold change is inactive: -0.011.

Regarding SLC26A6 (UniProt Q9BXS9), the log2 fold change was inactive: -0.007.

With SLC25A17 (UniProt O43808), the log2 fold change is inactive: -0.011.

On to SLC25A32 (UniProt Q9H2D1), for which the log2 fold change was inactive: 0.014.

Take SLC12A9 (UniProt Q9BXP2): the log2 fold change is inactive: 0.056.

With SLC1A5 (UniProt Q15758), the log2 fold change is inactive: -0.014.

As for SLC6A8 (UniProt P48029), the log2 fold change was inactive: 0.183.

Regarding SLC3A2 isoform 3 (UniProt P08195), the log2 fold change was inactive: 0.033.

For SLC25A1 (UniProt P53007), the log2 fold change was inactive: -0.004.

Take SLC20A1 (UniProt Q8WUM9): the log2 fold change was inactive: -0.002.

SLC12A2 (UniProt P55011): the log2 fold change is inactive: 0.036.

For the target SLC38A10 (UniProt Q9HBR0), the log2 fold change was inactive: 0.013.

With SLC5A3 (UniProt P53794), the log2 fold change is inactive: 0.061.

Turning to SLC5A6 (UniProt Q9Y289), the log2 fold change is inactive: 0.007.

As for SLC25A15 (UniProt Q9Y619), the log2 fold change was inactive: 0.033.
